Reference: article PMC8352872, “Biochemical and structural studies of target lectin SapL1 from the emerging opportunistic microfungus Scedosporium apiospermum” (Scientific Reports, 2021)
No constants are given. Whether binding was seen depends on the method and setting. Some binding calls cover weakened binding; strength is not graded here.

Target: Scedosporium apiospermum Lectin 1 (SapL1), carbohydrate recognition domain, residues 75-369 (Scedosporium apiospermum)
Test: crystal structure; co-crystallised with alpha-methyl-fucoside; 100 mM Bicine pH 8.5, 1.5 M ammonium sulfate, 12% glycerol, 19 °C; space group P2(1), two monomers in the asymmetric unit; both purified

B1: Scedosporium apiospermum Lectin 1 (SapL1), carbohydrate recognition domain, residues 75-369 (domain or fragment)
chain: MSGVLQISFPAGIAAIRNNSSLRVYEAALDGGVREAQYEGRWAGGKPDNVIATGKIGTPIAATSVGFQYIRVYYVGADNKAREACWDGKGWYTGAFVKDVAPYSSIGAVFLGKNIVVRVYTQNHDNTIQEWVWDSPSTGWTAGANFGAALPGTAIAATSWGAGPYHIRVYFQDTNRNVIESGWDGSGWYTGGLKISNQSPRASLGATSWGESGSSLGIRLYYATQDNLIKEKAWDGGGGWYDGGFQQRSIPGSRVAAIPLPVLRVYLQNGTEVSGITEYAWNSGWVVGQAVLPPA
notes: the first 74 residues of the annotated protein, which the authors suspect to be a misannotation, are left out; In the crystal all 295 amino acids are visible except the N-terminal methionine; also called hypothetical protein XP_016640003.1; source: E. coli BL21trxB (DE3), pProNde vector, purified (IMAC, TEV cleavage, second His-trap pass); not shown: His6, N-terminal, cleaved
Question: For B1, which binding is on record?
Answer: Its binding is “binds”.
